Experimental data reported in patent US20010044449A1, “REMEDIES FOR DRUG ADDICTION” (priority 1997, published 2001).

Test system: Sprague Dawley strain (SD strain) male rats
Experiment: Conditioned place preference (CPP) method, psychic dependence induced by morphine

CN1CC[C@]23c4c5ccc(O)c4O[C@H]2[C@@H](O)C=C[C@H]3[C@H]1C5 [morphine, reference compound]
Period rats remained in the box conditioned by the drug (morphine alone 3 mg/kg s.c. vs solvent control): significantly prolonged | Period rats remained in the box conditioned by the drug (morphine alone 5 mg/kg s.c.): significantly prolonged
